Out of some 360,000 compounds screened, about 7,500 (2.1%) were called active. The inconclusive results got no clear call from the source; some entries with a clear call stand among them for comparison. Calls follow the shape of the dose curve; as a rule, active = well fitted inhibition curve with a large enough effect; inconclusive = small, poorly fitted or top-dose-only effect, or effect the other way; inactive = flat fitted curve, though single readings scatter. Potencies beside an inconclusive call are fits to weak or partial responses and may not hold up.
Test: Nrf2 qHTS screen for inhibitors; also: nearly all actives have a fitted effect of over 60% in size
Conditions: A549 ARE-Fluc reporter, luciferase luminescence, 18-24 h; activity change, negative = inhibition: at 46 µM (top of the series)
Outline: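 Quantitative HTS in A549 cells stably bearing an antioxidant response element-firefly luciferase construct. Inhibition of Nrf2-driven transcription was scored by luminescence after 18-24 h of compound exposure at 37 °C.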
% is scaled to controls: 0 for no effect and ±100 for the full control effect; potency is read from the fitted curve at half-maximal effect.

SMILES | Potency | activity change, negative = inhibition
Cc1cc(Cl)ccc1NC(=O)c1ccc2c(c1)OCO2 | inconclusive: 4.61 µM [activator, partial curve] | –
O=C(COC(=O)CSc1cccc2cccc(Cl)c12)Nc1ncc(C(F)(F)F)cc1Cl | inconclusive: 11.6 µM [falling, partial curve, poor fit] | –
Cc1ccc(CNC(=O)COC(=O)c2cc(C)oc2C)cc1 | – | inactive: 6.88%
Cc1ccc(C)c(Nc2cc(C)nc3ccccc23)c1 | inconclusive: 0.731 µM [falling, partial curve] | –
CCOc1ccc(C(=O)c2cn(CC(=O)Nc3cc(OC)cc(OC)c3)c3ccc(F)cc3c2=O)cc1 | inconclusive: 1.84 µM [falling, partial curve, poor fit] | –
COc1ccc(C(=O)NC2CCCc3ccccc32)c(OC)c1OC (centres undefined) | inconclusive: 20.6 µM [falling, single point] | –
COc1ccc(C(=O)SC2=NCCS2)cc1 | inconclusive: 8.2 µM [falling, partial curve] | –
COc1ccc(-c2c(C#N)c(SCC(=O)Nc3ccccc3C)nc(C)c2C(=O)Nc2ccccc2)cc1OC | – | inactive: -3.23%
Cc1cc(Cl)c(C)c(S(=O)(=O)Oc2ccccc2NC(=O)CCC(=O)O)c1Cl | inconclusive: 4.61 µM [falling, partial curve, poor fit] | –
C/C=C(\C)C(=O)NCCN1C2=NC[C@@H](C)N2C[C@H]1Cc1ccc(O)cc1 | inconclusive: 18.4 µM [activator, single point] | –
O=C(c1ccc(F)cc1F)N1CCCC(c2nc(-c3ccc(F)cc3)no2)C1 (centres undefined) | inconclusive: 14.6 µM [falling, partial curve] | –
Cc1ccc(O)c(CNCCNCc2cc(C)ccc2O)c1 | inconclusive: 10.3 µM [falling, partial curve, poor fit] | –
Cc1cc(OCC(=O)NNC(=O)c2cnccn2)cc(C)c1Cl | inconclusive: 25.9 µM [falling, single point] | –
Cn1cc(S(=O)(=O)c2ccccc2)c(=O)c2cc(F)c(N3CCOCC3)cc21 | – | inactive: 0.546%
N#C/C(=C\c1ccc(Cl)cc1)C(=O)NCC1CCCO1 (centres undefined) | inconclusive: 6.51 µM [falling, single point] | –
CC(=O)c1ccc(N2CCN(C(=O)c3ccc(Cn4c(=S)[nH]c5ccc(N6CCOCC6)cc5c4=O)cc3)CC2)cc1 | inconclusive: 9.2 µM [falling, partial curve] | –
CCN(CC(=O)Nc1ccccc1C(F)(F)F)C(=O)c1ccc2[nH]c3c(c2c1)CC(C)CC3 (centres undefined) | active: 25.9 µM | –
CCN(CCCNC(=O)c1cc2c(=O)[nH]c3ccccc3c2s1)c1ccccc1 | inconclusive: 16.4 µM [falling, single point] | –
COc1ccccc1OCC(=O)Nc1ccccn1 | inconclusive: 0.58 µM [activator, full curve, poor fit] | –
CCC1CCCCN1S(=O)(=O)c1ccc(NC(=O)c2cc(=O)c3ccccc3o2)cc1 (centres undefined) | inconclusive: 23.1 µM [falling, partial curve, poor fit] | –
O=c1cc(C(F)F)oc2c1ccc1ccccc12 | inconclusive: 0.0366 µM [falling, full curve] | –
COc1cccc(CNC(=O)CN(C)S(=O)(=O)c2cnc[nH]2)c1 | inconclusive: 6.51 µM [activator, single point] | –
CCOc1cc(C(=O)Nc2ccc3c(c2)OCO3)ccc1OC(F)F | inconclusive: 32.6 µM [falling, single point] | –
O=C(C=Cc1ccccc1)CC(c1ccccc1)N1CCOCC1 (centres undefined) | inconclusive: 32.6 µM [falling, partial curve, poor fit] | –
CCN(CC)CCOC(=O)c1ccc(NC(=O)c2ccc(Cl)c(S(=O)(=O)N3CCCCCC3)c2)cc1 | inconclusive: 23.1 µM [falling, single point] | –
Fc1cccc(NCc2cn3ccccc3n2)c1 | inconclusive: 0.58 µM [activator, full curve, poor fit] | –
Cn1nc2c3ccccc3n(Cc3ccccc3)c2nc1=S | inconclusive: 29.1 µM [activator, single point] | –
CCOC1CCCCC1NS(=O)(=O)c1ccc(Cl)cc1 (centres undefined) | inconclusive: 0.146 µM [falling, full curve] | –
Cc1c(NC(=O)COC(=O)c2ccc(Cl)nc2)c(=O)n(-c2ccccc2)n1C | – | inactive: -1.24%

Among those listed so far, two contain a cyano group:
SMILES | Potency | activity change, negative = inhibition
COc1ccc(-c2c(C#N)c(SCC(=O)Nc3ccccc3C)nc(C)c2C(=O)Nc2ccccc2)cc1OC | – | inactive: -3.23%
N#C/C(=C\c1ccc(Cl)cc1)C(=O)NCC1CCCO1 (centres undefined) | inconclusive: 6.51 µM [falling, single point] | –
